Measured values from patent publication US7422849.
These are yes or no findings as the source states them, for the method shown. Some results given as binding are weak or reduced against the parent protein; the word gives no strength.

Protein sequences, listed by entry. Tags and fused reporters are not part of them. Lines headed by an entry give the natural chain unless they say otherwise; changes in a name come on top.
UniProt P23726: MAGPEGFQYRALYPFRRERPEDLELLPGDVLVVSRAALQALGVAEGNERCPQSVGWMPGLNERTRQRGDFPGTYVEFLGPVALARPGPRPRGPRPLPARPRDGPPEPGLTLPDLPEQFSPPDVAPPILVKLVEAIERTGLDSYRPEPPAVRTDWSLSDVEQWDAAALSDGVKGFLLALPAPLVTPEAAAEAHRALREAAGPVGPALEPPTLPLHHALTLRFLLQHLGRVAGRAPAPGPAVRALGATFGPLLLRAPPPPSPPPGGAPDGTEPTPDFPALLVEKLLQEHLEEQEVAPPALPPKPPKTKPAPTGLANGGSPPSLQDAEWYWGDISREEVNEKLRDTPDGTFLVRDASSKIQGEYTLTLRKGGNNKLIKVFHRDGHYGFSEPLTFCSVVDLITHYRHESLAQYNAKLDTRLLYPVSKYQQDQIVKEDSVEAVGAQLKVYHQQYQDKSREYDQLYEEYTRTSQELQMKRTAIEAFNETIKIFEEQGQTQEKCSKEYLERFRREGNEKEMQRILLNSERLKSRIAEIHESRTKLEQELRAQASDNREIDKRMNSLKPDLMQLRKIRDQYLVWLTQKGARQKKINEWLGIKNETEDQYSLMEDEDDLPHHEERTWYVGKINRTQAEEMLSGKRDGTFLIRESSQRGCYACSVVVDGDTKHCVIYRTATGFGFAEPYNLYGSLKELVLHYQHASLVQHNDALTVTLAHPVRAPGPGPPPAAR
UniProt P23727: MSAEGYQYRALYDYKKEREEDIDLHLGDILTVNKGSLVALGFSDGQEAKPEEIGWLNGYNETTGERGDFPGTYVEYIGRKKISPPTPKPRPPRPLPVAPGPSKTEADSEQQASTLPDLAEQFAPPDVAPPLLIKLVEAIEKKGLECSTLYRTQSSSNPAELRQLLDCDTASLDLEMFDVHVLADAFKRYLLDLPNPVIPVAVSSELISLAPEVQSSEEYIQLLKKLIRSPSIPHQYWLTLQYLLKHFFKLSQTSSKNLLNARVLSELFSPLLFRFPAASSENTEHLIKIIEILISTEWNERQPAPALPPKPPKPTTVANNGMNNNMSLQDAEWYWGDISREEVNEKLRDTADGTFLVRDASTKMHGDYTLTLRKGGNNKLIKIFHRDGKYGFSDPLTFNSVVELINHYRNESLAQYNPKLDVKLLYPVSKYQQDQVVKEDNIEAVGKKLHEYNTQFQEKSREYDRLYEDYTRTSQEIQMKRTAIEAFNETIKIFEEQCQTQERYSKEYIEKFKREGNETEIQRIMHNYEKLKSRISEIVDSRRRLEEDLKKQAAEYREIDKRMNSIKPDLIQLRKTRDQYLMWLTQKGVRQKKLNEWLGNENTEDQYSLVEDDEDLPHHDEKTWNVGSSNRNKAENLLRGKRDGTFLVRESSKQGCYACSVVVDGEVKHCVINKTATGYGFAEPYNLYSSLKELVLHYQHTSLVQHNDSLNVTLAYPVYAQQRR
UniProt P42336: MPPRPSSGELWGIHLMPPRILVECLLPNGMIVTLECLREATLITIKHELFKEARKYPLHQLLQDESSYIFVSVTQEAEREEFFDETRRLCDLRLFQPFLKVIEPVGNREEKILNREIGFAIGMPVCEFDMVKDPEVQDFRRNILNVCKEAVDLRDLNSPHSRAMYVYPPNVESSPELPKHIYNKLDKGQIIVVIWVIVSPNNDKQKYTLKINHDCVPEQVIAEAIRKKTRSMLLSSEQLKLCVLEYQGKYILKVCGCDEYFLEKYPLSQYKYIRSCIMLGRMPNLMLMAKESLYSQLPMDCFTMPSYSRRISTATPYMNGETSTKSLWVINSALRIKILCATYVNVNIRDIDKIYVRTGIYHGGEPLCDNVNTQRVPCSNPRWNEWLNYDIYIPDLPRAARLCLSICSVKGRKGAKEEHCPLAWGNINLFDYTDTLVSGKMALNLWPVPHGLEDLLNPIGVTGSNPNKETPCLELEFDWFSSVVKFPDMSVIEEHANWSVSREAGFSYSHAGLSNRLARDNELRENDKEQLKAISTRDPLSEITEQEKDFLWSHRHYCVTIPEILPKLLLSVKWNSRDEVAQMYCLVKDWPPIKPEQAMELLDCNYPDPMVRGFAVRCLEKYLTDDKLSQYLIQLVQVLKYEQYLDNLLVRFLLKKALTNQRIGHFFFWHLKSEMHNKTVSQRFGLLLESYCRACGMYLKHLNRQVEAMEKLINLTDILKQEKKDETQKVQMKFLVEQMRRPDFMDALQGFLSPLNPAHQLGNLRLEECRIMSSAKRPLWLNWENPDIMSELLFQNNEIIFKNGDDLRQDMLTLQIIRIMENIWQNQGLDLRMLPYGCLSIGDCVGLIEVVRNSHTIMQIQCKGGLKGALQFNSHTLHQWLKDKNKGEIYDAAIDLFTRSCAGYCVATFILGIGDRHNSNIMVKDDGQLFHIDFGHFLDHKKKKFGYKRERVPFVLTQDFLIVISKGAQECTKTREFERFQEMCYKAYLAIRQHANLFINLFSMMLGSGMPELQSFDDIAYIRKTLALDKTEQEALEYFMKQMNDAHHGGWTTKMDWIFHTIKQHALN
UniProt P32871: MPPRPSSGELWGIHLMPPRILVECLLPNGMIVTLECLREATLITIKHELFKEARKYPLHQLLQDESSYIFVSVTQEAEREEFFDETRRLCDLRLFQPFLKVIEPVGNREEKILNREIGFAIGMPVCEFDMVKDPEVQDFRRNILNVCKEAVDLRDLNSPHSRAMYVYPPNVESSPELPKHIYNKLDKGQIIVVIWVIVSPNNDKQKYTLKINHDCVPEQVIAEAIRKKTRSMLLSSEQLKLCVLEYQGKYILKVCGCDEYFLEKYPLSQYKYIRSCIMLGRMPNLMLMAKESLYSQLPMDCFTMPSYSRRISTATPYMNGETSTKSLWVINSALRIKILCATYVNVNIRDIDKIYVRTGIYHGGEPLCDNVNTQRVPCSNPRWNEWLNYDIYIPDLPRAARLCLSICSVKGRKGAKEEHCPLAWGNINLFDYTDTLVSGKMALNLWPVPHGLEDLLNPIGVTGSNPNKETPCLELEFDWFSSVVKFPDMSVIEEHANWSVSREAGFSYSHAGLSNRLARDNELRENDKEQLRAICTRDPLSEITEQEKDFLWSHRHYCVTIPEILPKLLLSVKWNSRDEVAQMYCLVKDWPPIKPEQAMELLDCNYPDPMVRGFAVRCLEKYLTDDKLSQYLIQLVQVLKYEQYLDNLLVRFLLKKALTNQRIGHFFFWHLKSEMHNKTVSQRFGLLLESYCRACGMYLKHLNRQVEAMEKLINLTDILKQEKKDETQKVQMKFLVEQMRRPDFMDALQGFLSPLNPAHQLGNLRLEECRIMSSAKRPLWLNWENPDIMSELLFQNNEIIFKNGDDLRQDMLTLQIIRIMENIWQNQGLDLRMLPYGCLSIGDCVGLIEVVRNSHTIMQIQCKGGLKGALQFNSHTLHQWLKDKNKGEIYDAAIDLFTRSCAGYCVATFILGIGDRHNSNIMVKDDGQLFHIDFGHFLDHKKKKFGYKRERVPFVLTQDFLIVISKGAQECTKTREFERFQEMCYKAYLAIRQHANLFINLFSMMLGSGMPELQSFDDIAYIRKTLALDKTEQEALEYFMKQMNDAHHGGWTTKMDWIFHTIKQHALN

What was measured:
bovine p85β (bovine) [1] = target: bovine p85β (bovine) (UniProt P23726); test: deletion mutants and PCR fragments of p110-N; retention of p85
bovine p85α (bovine) [2] = target: bovine p85α (bovine) (UniProt P23727); test: as above
bovine p85β (bovine) [3] = target: bovine p85β (bovine) (UniProt P23726); test: GST fusion on glutathione sepharose retaining p85 purified from baculovirus; SDS-PAGE
bovine p85α (bovine) [4] = target: bovine p85α (bovine) (UniProt P23727); test: as above

Substance	binding (bovine p85β (bovine) [1])	binding (bovine p85α (bovine) [2])	binding (bovine p85β (bovine) [3])	binding (bovine p85α (bovine) [4])
domain containing amino acids 19-110 of human p110 (from UniProt P42336 19-110)	binds	binds		
p110-N (amino acids 1-128 of human p110), GST fusion protein (from UniProt P32871 1-128)			binds	binds
